Laboratory results from US10047050B2, “3,4-di-substituted pyridine compound, methods of using and compositions comprising the same” (ARDEA BIOSCIENCES, INC., priority 2011, dated 2018).
Several values for one entry are separate records, joined by “and”; a condition that tells them apart may be missing. Equal values may be shown once. The source gives many values for each of these; only a part stands here.

Test system: serum uric acid
Experiment: Multi-dose Phase I clinical trial, serum uric acid (sUA), once daily for 10 days
Assay type: in vivo, human
Details: group 9, 10 mg once daily for 10 days, individual subjects 3-11 (active)
Excerpt: A Phase 1, Randomized, Double-Blind, Placebo-Controlled Study to Evaluate Safety, Tolerability, Pharmacokinetics and Preliminary Food Effect of Multiple Rising Doses of a URAT1 Inhibitor, in Healthy Adult Male Volunteers.
Fasted subjects receive oral doses of active or placebo, once daily, for 10 days, at the following doses:
36 subjects in 3 dose groups, 12 subjects/group, are randomized […] to receive active (9/group) or placebo ([…]). All study procedures are the same regardless of whether subject receives active or placebo. Total duration of subject participation, including screening period, is ˜2-4 weeks, and the total volume of blood collected from each subject during the entire study <500 mL, (less than typically collected during a volunteer blood donation).
5 mg, active and placebo, tablets packaged in 35 count HDPE bottles, stored at controlled room temperature (15-30° C.). Placebo tablets are designed to match the active tablets—identical size, form, taste, and color, and containing the same excipients. 1 mg doses were administered as oral solutions.
Subjects dosed in the morning of Days 1-10 with ˜240 mL of room temp water.
Urine, serum and plasma samples collected periodically
PD samples frozen (−20° C.) and stored; all samples from a given subject assayed in a single analytical run.

## CC(C)(Sc1ccncc1-c1ccc(C#N)c2ccccc12)C(=O)O [2-((3-(4-cyanonaphthalen-1-yl)pyridin-4-yl)thio)-2-methylpropanoic acid]
Time 0 (baseline)
  % sUA change (from baseline): 0%
  Absolute sUA concentration: 5.4 mg/dL and 5.2 mg/dL and 8.0 mg/dL and 7.3 mg/dL and 6.8 mg/dL and 6.6 mg/dL and 6.4 mg/dL and 6.2 mg/dL and 5.6 mg/dL
Time 6
  % sUA change (from baseline): −25.9% and −32.7% and −22.5% and −28.8% and −31.8% and −35.9% and −35.3% and −32.3% and −26.8%
  Absolute sUA concentration: 4.0 mg/dL and 3.5 mg/dL and 6.2 mg/dL and 5.2 mg/dL and 4.4 mg/dL and 4.5 mg/dL and 4.1 mg/dL (2×) and 4.2 mg/dL
Time 12
  % sUA change (from baseline): −29.6% and −42.3% and −18.8% and −35.6% and −39.7% and −51.5% and −45.3% and −35.7% and −32.3%
  Absolute sUA concentration: 3.8 mg/dL and 3.0 mg/dL and 6.5 mg/dL and 4.7 mg/dL and 4.1 mg/dL and 3.2 mg/dL and 3.5 mg/dL and 4.2 mg/dL and 3.6 mg/dL
Time 24
  % sUA change (from baseline): −33.3% and −38.5% and −15.0% and −28.8% and −41.2% and −50.0% and −34.4% and −32.3% and −14.3%
  Absolute sUA concentration: 3.6 mg/dL and 3.2 mg/dL and 6.8 mg/dL and 5.2 mg/dL and 4.0 mg/dL and 3.3 mg/dL and 4.2 mg/dL (2×) and 4.8 mg/dL
Time 48
  % sUA change (from baseline): −37.0% and −36.5% and −31.3% (2×) and −30.1% and −51.5% and −45.5% and −35.5% and −16.1%
  Absolute sUA concentration: 3.4 mg/dL and 3.3 mg/dL (2×) and 5.5 mg/dL and 5.1 mg/dL and 3.6 mg/dL and 4.4 mg/dL and 4.0 mg/dL and 4.7 mg/dL
Time 72
  % sUA change (from baseline): −51.9% and −57.7% and −45.0% and −45.2% and −60.3% and −54.5% and −43.8% and −51.6% and −37.5%
  Absolute sUA concentration: 2.6 mg/dL and 2.2 mg/dL and 4.4 mg/dL and 4.0 mg/dL and 2.7 mg/dL and 3.0 mg/dL (2×) and 3.6 mg/dL and 3.5 mg/dL
Time 96
  % sUA change (from baseline): −53.7% and −57.7% and −51.3% and −49.3% and −66.2% and −56.1% and −51.6% and −54.8% and −42.9%
  Absolute sUA concentration: 2.5 mg/dL and 2.2 mg/dL and 3.9 mg/dL and 3.7 mg/dL and 2.3 mg/dL and 2.9 mg/dL and 3.1 mg/dL and 2.8 mg/dL and 3.2 mg/dL
Time 102
  % sUA change (from baseline): −50.0% (2×) and −65.4% and −51.3% and −57.5% and −64.7% and −54.5% and −46.9% and −56.5%
  Absolute sUA concentration: 2.7 mg/dL (2×) and 1.8 mg/dL and 3.9 mg/dL and 3.1 mg/dL and 2.4 mg/dL and 3.0 mg/dL and 3.4 mg/dL and 2.8 mg/dL
Time 108
  % sUA change (from baseline): −50.0% (2×) and −63.5% and −51.3% and −58.9% and −69.1% and −65.2% and −51.6% and −54.8%
  Absolute sUA concentration: 2.7 mg/dL and 1.9 mg/dL and 3.9 mg/dL and 3.0 mg/dL and 2.1 mg/dL and 2.3 mg/dL and 3.1 mg/dL and 2.8 mg/dL (2×)
Time 120
  % sUA change (from baseline): −46.3% and −51.9% and −42.5% and −47.9% and −60.3% and −56.1% and −40.6% and −41.9% and −35.7%
  Absolute sUA concentration: 2.9 mg/dL (2×) and 2.5 mg/dL and 4.6 mg/dL and 3.8 mg/dL (2×) and 2.7 mg/dL and 3.6 mg/dL (2×)
Time 144
  % sUA change (from baseline): −44.4% and −50.0% and −40.0% and −52.1% and −58.8% and −53.0% and −40.6% and −24.2% and −35.7%
  Absolute sUA concentration: 3.0 mg/dL and 2.6 mg/dL and 4.8 mg/dL and 3.5 mg/dL and 2.8 mg/dL and 3.1 mg/dL and 3.8 mg/dL and 4.7 mg/dL and 3.6 mg/dL
Time 168
  % sUA change (from baseline): −53.7% and −53.8% and −38.7% and −56.2% and −64.7% and −56.1% and −48.4% and −33.9% and −41.1%
  Absolute sUA concentration: 2.5 mg/dL and 2.4 mg/dL (2×) and 4.9 mg/dL and 3.2 mg/dL and 2.9 mg/dL and 3.3 mg/dL (2×) and 4.1 mg/dL
Time 192
  % sUA change (from baseline): −57.4% and −57.7% and −47.5% and −58.9% and −70.6% and −65.2% and −50.0% (2×) and −44.6%
  Absolute sUA concentration: 2.3 mg/dL (2×) and 2.2 mg/dL and 4.2 mg/dL and 3.0 mg/dL and 2.0 mg/dL and 3.2 mg/dL and 3.1 mg/dL (2×)
Time 216
  % sUA change (from baseline): −51.9% (2×) and −43.8% and −56.2% and −64.7% and −56.1% and −48.4% and −37.5%
  Absolute sUA concentration: 2.6 mg/dL and 2.5 mg/dL and 4.5 mg/dL and 3.2 mg/dL (2×) and 2.4 mg/dL and 2.9 mg/dL and 3.5 mg/dL
Time 222, post dosing
  % sUA change (from baseline): −51.9% and −55.8% and −51.3% and −64.4% and −69.1% and −60.6% and −56.5% and −39.3%
  Absolute sUA concentration: 2.6 mg/dL (3×) and 2.3 mg/dL and 3.9 mg/dL and 2.1 mg/dL and 2.7 mg/dL and 3.4 mg/dL
Time 228, post dosing
  % sUA change (from baseline): −50.0% and −55.8% and −53.8% and −67.1% and −69.1% and −65.2% and −54.7% and −59.7% and −44.6%
